# Test system: naïve rats
# Test: Open field activity (basic movement)
# Format: in vivo, rat
# Settings: diazepam 10 mg/kg
# Procedure: Basic movement was measured using the Photobeam Activity System Open Field (San Diego Instruments, San Diego, CA) equipped with 48 infrared photocell emitters and detectors. Photobeams used to measure vertical movement were positioned 14 cm above the test chamber floor. Each testing chamber was made of Plexiglas (41 x 41 x 36 cm) and was devoid of any bedding. At the beginning of the test session, each animal was placed in a separate testing chamber and the room lights were turned off. Basic movement was measured for 30 minutes.
smiles,measurement,value
"CN1C(=O)CN=C(c2ccccc2)c2cc(Cl)ccc21 [Diazepam, diazepam, reference compound]",Reduction in basic movement,67%
